{"source": "PubChem BioAssay AID1347431", "about": "(National Center for Advancing Translational Sciences (NCATS), 2020)", "note": "Among all 1,200 compounds or so, fewer than 10 were called active. Calls follow the shape of the dose curve; as a rule, active = well fitted curve in the direction sought with a large enough effect; inconclusive = small, poorly fitted or top-dose-only effect, or another doubt; inactive = no such curve, though single readings can be large or run the other way. The list shows a part of the results."}
{"assay": "Confirmatory qHTS assay for inhibitors of Activation Induced Cytidine Deaminase (AID): UDG signals; also: 0% is about no effect", "settings": "UDG coupled enzyme activity counter-screen; at 115 µM (top of the series) unless noted", "procedure,_shortened": "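Fluorescence at 560 nm excitation/665 nm emission reports UDG activity, read after NaOH quench of a 4 h room-temperature reaction of DJC20/DJC23 substrates with AID (1 uM, 4/3x) and UDG (2 U/mL, 4/3x); compounds at 7.32 nM - 114 uM final, preincubated 10 min.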"}
{"compound": "COc1ccc(C(=O)N(Cc2ccc(N(C)C)cc2)Cc2ccco2)cc1Cl", "activity change, negative = inhibition": "inactive: -6.58%"}
{"compound": "COc1cccc(Cn2c(=O)n(CC3CCC(C(=O)N4CCCCC4)CC3)c(=O)c3sccc32)c1", "note": "(stereo not drawn)", "activity change, negative = inhibition": "inactive: -4.73%"}
{"compound": "CCOC(=O)C1CCCN(c2nc3c(S(=O)(=O)c4ccc(CC)cc4)nnn3c3ccc(Cl)cc23)C1", "note": "(stereo not drawn)", "activity change, negative = inhibition": "inactive: 1.14%"}
{"compound": "CCN(CC)C(=O)c1ccc2c(c1)N(Cc1ccc(C(F)(F)F)cc1)C(=O)c1ccccc1S2", "activity change, negative = inhibition": "inactive: -11.1%"}
{"compound": "CC(=O)N1CCc2c(sc3c2c(=O)n(Cc2ccccc2)c(=O)n3Cc2ccccc2F)C1", "activity change, negative = inhibition": "inactive: -1.57%"}
{"compound": "O=C(Nc1cccc(Cl)c1)C1CCCN(c2nn3cc(-c4ccc(F)cc4)nc3s2)C1", "note": "(stereo not drawn)", "activity change, negative = inhibition": "inactive: -0.847%"}
{"compound": "CCOc1ccc(C(=O)c2cn(CC(=O)Nc3ccc4c(c3)OCO4)c3ccc(OC)cc3c2=O)cc1", "activity change, negative = inhibition": "inactive: -6.11%"}
{"compound": "Cc1nc2nc(NC(=O)c3ccc(C(C)(C)C)cc3)[nH]n2c(=O)c1Cl", "activity change, negative = inhibition": "inactive: 2.15%"}
{"compound": "COc1ccccc1CNC(=O)CSc1nc2nc(C)c(Cc3ccccc3Cl)c(C)n2n1", "activity change, negative = inhibition": "inactive: 3.15%"}
{"compound": "CCOc1ccc(CCNC(=O)c2nc(-c3cccc(F)c3)n3c2CCCCC3)cc1OCC", "activity change, negative = inhibition": "inactive: -9.3%"}
{"compound": "Cc1ccc(Nc2c(-c3ccc(C)cc3)nc3cnccn23)cc1", "activity change, negative = inhibition": "inactive: -5.89%"}
{"compound": "C=Cc1ccc(CSc2nc(-c3ccc(OC)cc3)nc3c2Cc2c(CO)cnc(C)c2O3)cc1", "activity change, negative = inhibition": "inactive: -9.8%"}
{"compound": "O=C(Cc1ccc(F)cc1)N1CCC(c2nc3c(nnn3Cc3ccc(Cl)cc3)c(=O)[nH]2)CC1", "activity change, negative = inhibition": "inactive: 1.36%"}
{"compound": "CCc1ccc(CNC(=O)c2ccc(CSc3nc4ccncc4n3Cc3ccccc3)cc2)cc1", "activity change, negative = inhibition": "inactive: -3.79%"}
{"compound": "Cc1ccn2c(Nc3ccccc3C)c(-c3ccccn3)nc2c1", "activity change, negative = inhibition": "inactive: -21.6%"}
{"compound": "Cc1ccc(C2C=C(c3ccc(Cl)cc3)Nc3nc(NS(=O)(=O)c4ccccc4)nn32)cc1", "note": "(stereo not drawn)", "activity change, negative = inhibition": "inactive: 2.47%"}
{"compound": "C=CCc1ccccc1OCCSc1nc(-c2ccc(C(C)(C)C)cc2)nc2cc(=O)[nH]n12", "activity change, negative = inhibition": "inactive: -0.601%"}
{"compound": "CCOC(=O)c1cccc(NC(=O)c2oc3c(c2C)-c2[nH]ncc2CC3)c1", "activity change, negative = inhibition": "inactive: -8.63%"}
{"compound": "O=C(COc1ccccc1)NCc1ccc2c(c1)CCN2C(=O)c1ccc(F)cc1", "activity change, negative = inhibition": "inactive: 1.55%"}
{"compound": "Cc1cccc(CNC(=O)c2oc3c(c2C)-c2nn(Cc4ccccc4Cl)cc2CC3)c1", "activity change, negative = inhibition": "inactive: 6.73%"}
{"compound": "Cc1ccc(Cl)cc1NC(=O)c1oc2c(c1C)-c1[nH]ncc1CC2", "activity change, negative = inhibition": "inactive: -4.49%"}
{"compound": "CCN(CC)c1cc(C)c2cc(NC(=O)c3ccc(OC)c(OC)c3)ccc2n1", "activity change, negative = inhibition": "inactive: -11%"}
{"compound": "COc1ccc(Cl)cc1NC(=O)CSc1nc(=O)n(Cc2ccco2)c2c1CCC2", "activity change, negative = inhibition": "inactive: -1.64%"}
{"compound": "Cc1cc(Nc2cccc(C(F)(F)F)c2)nc2ccc(NC(=O)Cc3ccc(Cl)cc3)cc12", "activity change, negative = inhibition": "inactive: -2.34%"}
{"compound": "C[N+](C)(CCCCCC[N+](C)(C)CCCN1C(=O)c2cccc3cccc(c23)C1=O)CCCN1C(=O)c2cccc3cccc(c23)C1=O", "activity change, negative = inhibition": "inactive: 15%"}
{"compound": "CC1(C)CC(=O)c2cc(C#N)c(=O)n(-c3ccc(Cl)cc3)c2C1", "activity change, negative = inhibition": "inactive: 2.6%"}
{"compound": "Cc1nc2c(C(=O)NCc3ccccc3)cnn2c(C)c1Cc1ccc(F)cc1", "activity change, negative = inhibition": "inactive: -4.98%"}
{"compound": "CCN1C(=O)c2ccccc2Sc2ccc(NC(=O)COc3ccc(Cl)cc3)cc21", "activity change, negative = inhibition": "inactive: -5.41%"}
{"compound": "CCCn1c(SCc2nc(-c3ccccc3C)no2)nnc1-c1ccc(Cl)cc1", "activity change, negative = inhibition": "inactive: -20.3%"}
{"compound": "Cc1cc(C)cc(Nc2nc3cc(Cl)c(Cl)cc3nc2-n2nc(C)cc2C)c1", "activity change, negative = inhibition": "inactive: 4.6%"}
{"compound": "COc1ccc(-c2coc3c2c(C)cc2oc(=O)c(CC(=O)O)c(C)c23)cc1", "activity change, negative = inhibition": "inactive: -15.3%"}
{"compound": "COc1cc2c(cc1OC)C(COc1ccc(F)cc1)N(C(=O)c1cccc(F)c1)CC2", "note": "(stereo not drawn)", "activity change, negative = inhibition": "inactive: -11.3%"}
{"compound": "Cc1cc(C)cc(NC(=O)Cn2nnc(C(=O)NCc3ccco3)c2N)c1", "activity change, negative = inhibition": "inactive: -4.65%"}
{"compound": "Cc1cccc(NC(=O)c2oc3c(c2C)-c2[nH]ncc2CC3)c1C", "activity change, negative = inhibition": "inactive: 4.38%"}
{"compound": "Cc1cccc(C)c1-n1ncc(C(=O)NCc2ccc3c(c2)OCO3)c1C1CCN(C(=O)OC(C)(C)C)CC1", "activity change, negative = inhibition": "inactive: -15.8%"}
{"compound": "COc1ccc(C(=O)NCCn2cc(SCC(=O)Nc3ccc(F)cc3)c3ccccc32)cc1", "activity change, negative = inhibition": "inactive: -6.79%"}
{"compound": "CCn1c(=O)cc(OCC(=O)N2CCN(c3cccc(Cl)c3)CC2)c2ccccc21", "activity change, negative = inhibition": "inactive: 5.57%"}
{"compound": "O=C(Nc1cccc(C(=O)Nc2ccc(S(=O)(=O)O)c3cc(S(=O)(=O)O)cc(S(=O)(=O)O)c23)c1)Nc1cccc(C(=O)Nc2ccc(S(=O)(=O)O)c3cc(S(=O)(=O)O)cc(S(=O)(=O)O)c23)c1", "activity change, negative = inhibition": "inactive: 2.4%"}
{"compound": "CCOc1ccccc1NC(=O)CSC1=Nc2ccccc2C2=NC(CC(=O)NCc3ccc4c(c3)OCO4)C(=O)N12", "note": "(stereo not drawn)", "activity change, negative = inhibition": "inactive: 1.12%"}
{"compound": "Cc1nn2c(=O)cc(COC(=O)C(c3ccccc3)c3ccccc3)nc2s1", "activity change, negative = inhibition": "inactive: -8.64%"}
{"compound": "CCc1ccc(CNC(=O)CCCN2C(=O)c3cccnc3Oc3ccc(Cl)cc32)cc1", "activity change, negative = inhibition": "inactive: -12.7%"}
{"compound": "Cc1cc(OCCCSc2nc(-c3ccc(C(C)(C)C)cc3)nc3cc(=O)[nH]n23)ccc1Cl", "activity change, negative = inhibition": "inactive: -3.24%"}
{"compound": "CC(C)(C)c1ccc(-c2nc(SCCCOc3ccccc3)n3[nH]c(=O)cc3n2)cc1", "activity change, negative = inhibition": "inactive: -2.37%"}
{"compound": "CCCCN(CCCC)CCNC(=O)c1cn(CC)c2ccc(S(=O)(=O)N(C)C3CCCCC3)cc2c1=O", "activity change, negative = inhibition": "inactive: -10.3%"}
{"compound": "CCN(CC)c1cc(C)c2cc(NC(=O)c3cccc(OC)c3)ccc2n1", "activity change, negative = inhibition": "inactive: -4.41%"}
{"compound": "CCOc1ccc(CNCc2c(C(=O)O)n(Cc3ccccc3F)c3cc(OC)ccc23)cc1", "activity change, negative = inhibition": "inactive: 4.98%"}
{"compound": "Cc1ccc(/C=C/c2onc(C)c2S(=O)(=O)N2CCC(C(=O)N3CCC(N(C)C(C)C)CC3)CC2)cc1", "activity change, negative = inhibition": "inactive: -9.47%"}
{"compound": "CC1CCCN(CCCNC(=O)c2ccc3c(c2)N(Cc2ccccc2F)C(=O)c2ccccc2S3(=O)=O)C1", "note": "(stereo not drawn)", "activity change, negative = inhibition": "inactive: -12.7%"}
{"compound": "COCCCNC(=O)c1oc2c(c1C)-c1nn(Cc3cccc(Cl)c3)cc1CC2", "activity change, negative = inhibition": "inactive: -14.6%"}
{"compound": "CCN(CCCNC(=O)c1cc2c(=O)n(C)c3ccccc3c2s1)Cc1ccccc1", "activity change, negative = inhibition": "inactive: -3.53%"}
{"compound": "Cc1ccc2c(c1)C(c1ccc(F)cc1)N(C(=O)COc1ccc(Cl)cc1Cl)CC(=O)N2", "note": "(stereo not drawn)", "activity change, negative = inhibition": "inactive: -0.309%"}
{"compound": "Cc1[nH]c2ccccc2c1C1(O)C(=O)N(Cc2ccccc2Cl)c2ccccc21", "note": "(stereo not drawn)", "activity change, negative = inhibition": "inactive: -8.54%"}
{"compound": "Cc1nc2nc(SCC(=O)NC3CCC(C)CC3)nn2c(C)c1Cc1ccccc1", "note": "(stereo not drawn)", "activity change, negative = inhibition": "inactive: -4.48%"}
{"compound": "Cc1ccc(-c2cn(-c3cccc(Cl)c3)c(S(=O)(=O)CC(=O)Nc3cccc(C)c3)n2)cc1", "activity change, negative = inhibition": "inactive: -10.9%"}
{"compound": "CCn1cc(C(=O)NCCCN2CCCC(C)C2)c(=O)c2cc(S(=O)(=O)N(C)C3CCCCC3)ccc21", "note": "(stereo not drawn)", "activity change, negative = inhibition": "inactive: -11.7%"}
{"compound": "CC1=Nc2cc(C(=O)N3CCC(C)CC3)ccc2Sc2ccc(Cl)cc21", "activity change, negative = inhibition": "inactive: -3.16%"}
{"compound": "CCn1cc(C(=O)NCCCOC)c(=O)c2cc(S(=O)(=O)N3CCc4ccccc4C3)ccc21", "activity change, negative = inhibition": "inactive: -9.97%"}
{"compound": "CN(C(=O)c1ccc2c(Cl)c3c(nc2c1)CCC3)c1ccccc1F", "activity change, negative = inhibition": "inactive: -8.37%"}
{"compound": "COc1ccccc1C(=O)Nc1ccc(C(=O)OCc2cc(=O)n3nc(C)sc3n2)cc1", "activity change, negative = inhibition": "inactive: -4.95%"}
{"compound": "COc1ccccc1Cn1cc(C(=O)c2ccccc2)c(=O)c2cc(OC)c(OC)cc21", "activity change, negative = inhibition": "inactive: -10.3%"}
{"compound": "CC1CCCCN1CCNC(=O)c1ccc(Cn2c(SCc3ccccc3)nc3cccnc32)cc1", "note": "(stereo not drawn)", "activity change, negative = inhibition": "inactive: -1.41%"}
{"compound": "COc1ccccc1C(=O)Nc1nnc(SCc2cc(=O)c3ccccc3[nH]2)s1", "activity change, negative = inhibition": "inactive: 0.423%"}
{"compound": "C=Cc1ccc(CN2C(=O)N(c3ccc(C)c(C)c3)S(=O)(=O)c3ccccc32)cc1", "activity change, negative = inhibition": "inactive: -4.6%"}
{"compound": "CCc1ccc(C(c2ccccc2)c2c(C)[nH]c3ccccc23)s1", "note": "(stereo not drawn)", "activity change, negative = inhibition": "inactive: -1.17%"}
{"compound": "CCc1ccccc1NC(=O)CN(c1ccccc1OC)S(=O)(=O)c1ccc(C)cc1", "activity change, negative = inhibition": "inactive: -3.37%"}
{"compound": "Cc1ccc(C)c(N2CCN(C(=O)c3cc4ccc5cccnc5c4[nH]3)CC2)c1", "activity change, negative = inhibition": "inactive: -15.2%"}
{"compound": "O=C(CC1N=C2c3ccccc3N=C(SCc3ccc(Cl)cc3)N2C1=O)NCCc1ccccc1", "note": "(stereo not drawn)", "activity change, negative = inhibition": "inactive: 4.8%"}
{"compound": "CC(=O)N1CCc2c(sc3c2c(=O)n(CCc2ccccc2)c(=O)n3Cc2ccc(F)cc2)C1", "activity change, negative = inhibition": "inactive: -4.25%"}
{"compound": "CCOC(=O)c1ccccc1NC(=O)N(Cc1ccc(CC)cc1)Cc1cn[nH]c1-c1ccc(OC)cc1", "activity change, negative = inhibition": "inactive: -10.9%"}
{"compound": "Cc1cccc(CN2CCC(CNc3ncnc4onc(-c5ccc(Cl)cc5)c34)CC2)c1", "activity change, negative = inhibition": "inactive: -4.32%"}
{"compound": "Cc1ccccc1NC(=O)c1ccc(N(Cc2ccccc2)S(C)(=O)=O)cc1", "activity change, negative = inhibition": "inactive: 4.85%"}
{"compound": "COc1ccc(CCN2CCC(CNC(=O)c3cnn(-c4cccc(Cl)c4)c3C3CCN(C(=O)OC(C)(C)C)CC3)CC2)cc1", "activity change, negative = inhibition": "inactive: -5.53%"}
{"compound": "Cc1ccc(NC(=O)c2c(NC(=O)C(F)(F)F)sc3c2CCCCC3)cc1", "activity change, negative = inhibition": "inactive: 3.35%"}
{"compound": "CCOc1ccc(-c2nc(SCC(=O)Nc3cc(F)ccc3F)n3[nH]c(=O)cc3n2)cc1", "activity change, negative = inhibition": "inactive: 3.9%"}
{"compound": "Cc1ccc(CSc2nc(-c3ccccc3C)nc3c2Cc2c(CO)cnc(C)c2O3)cc1", "activity change, negative = inhibition": "inactive: -0.539%"}
{"compound": "Cc1ccc(C)c(Cn2c(=O)n(CC3CCC(C(=O)N4CCOCC4)CC3)c(=O)c3sccc32)c1", "note": "(stereo not drawn)", "activity change, negative = inhibition": "inactive: 0.301%"}
{"compound": "COc1ccc(CN(Cc2ccco2)C(=O)COc2ccc(Cl)cc2C)cc1", "activity change, negative = inhibition": "inactive: -10.8%"}
{"compound": "Cc1ccccc1Cn1nnc2c(=O)[nH]c(C3CCCN(C(=O)c4ccc(C(C)(C)C)cc4)C3)nc21", "note": "(stereo not drawn)", "activity change, negative = inhibition": "inactive: -9.08%"}
